In all, about 340,000 compounds went through this assay and about 170 (0.05%) were called active. Inconclusive results, whose numbers are uncertain, are shown with a selection of clear calls. The call rests on the fitted dose curve; in most records, active means well fitted inhibition curve with a large enough effect in the signal ratio, with a control signal flat (not every such curve was filed as active); inconclusive means small, poorly fitted or top-dose-only effect, or effect the other way, or a change in a side signal; inactive means flat fitted curve, though single readings scatter; the % refers to the signal ratio. Where the call is inconclusive, the potency comes from a doubtful curve fit.
Assay: qHTS Assay to Find Inhibitors of Chronic Active B-Cell Receptor Signaling;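 on activity change, negative = inhibition: plate controls were basal doxycycline-induced cells for no effect and cells given 10 µM MG132 for full effect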
Details: ABC-DLBCL IkBa-CBG/CBR reporter, luminescence ratio (green luciferase fused to IkBa over red control in TMD8 lymphoma cells), 4 h; activity change, negative = inhibition: at 46.1 µM (top of the series)
Procedure, shortened: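 TMD8 human ABC-DLBCL cells with doxycycline-inducible IκBα–green luciferase fusion and unfused red luciferase, in 0.5% FBS medium; compounds up to 46 uM, 4 h at 37C. Green/red luminescence ratio, filter-overlap corrected, fitted to concentration-response curves.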
With O=C(/C=C/c1ccccc1)N1CCOCC1 the activity change, negative = inhibition was inconclusive: 0.202%. In the case of Cc1nn(C)c(C(=O)NNC(=S)NCc2ccco2)c1Cl, the activity change, negative = inhibition is reported as inconclusive: 9.18%. In the case of Nc1ncc(N=Nc2cc(C(=O)O)ccc2Cl)s1, the activity change, negative = inhibition is reported as inconclusive: -1.17%. With CCc1ccc(N2C(=O)C(Cl)=C(N3CCOCC3)C2=O)cc1 the activity change, negative = inhibition was inconclusive: 1.49%. In the case of O=C(c1ccc2c(c1)OCCO2)C1CCN(C(=O)c2ccc(F)cc2)CC1, the activity change, negative = inhibition is reported as inconclusive: 4.49%. With O=C(CCCN1C(=O)/C(=C\c2cccs2)SC1=S)Nc1cccnc1 the Potency was inconclusive: 13 µM [falling, partial curve]. With O=C(CCC(=O)N1CCSc2ccccc21)NCCc1ccccc1 the activity change, negative = inhibition was “inactive”. For CCc1nc(SCC(=O)c2cccs2)c2oc3ccccc3c2n1, the activity change, negative = inhibition was “inactive”. With O=C(CCc1ccccc1)NC(=S)Nc1cccc(C(=O)O)c1 the Potency was inconclusive: 35.5 µM [falling, single point]. For CCOC(=O)C1/C(=N\O)CC(C)(O)C(C(=O)OCC)C1c1ccc(N(C)C)cc1 (configuration not stated), the Potency was inconclusive: 4.61 µM [rising, full curve, poor fit]. With CNC(=O)c1cc2cc(OC)ccc2oc1=O the activity change, negative = inhibition was “inactive”. In the case of COC(=O)c1c(NC(=O)Cc2ccccc2)sc(C)c1C, the activity change, negative = inhibition is reported as inconclusive: 30.7%. In the case of Cc1ccc(C(C(=O)NCC2CCCO2)N(Cc2ccccc2)C(=O)c2ccc(-c3ccccc3)[nH]2)o1 (configuration not stated), the activity change, negative = inhibition is reported as inconclusive: 17.8%. In the case of COc1c(O)cc2c(c1O)[C@@H]1O[C@H](CO)[C@@H](O)[C@H](O)[C@H]1OC2=O, the activity change, negative = inhibition is reported as “inactive”. In the case of O=C(Nc1ccccc1F)c1ccc2nc(N3C(=O)CCC3=O)sc2c1, the Potency is reported as inconclusive: 10 µM [falling, partial curve]. For CC(=O)Nc1ccc(NC(=O)C(C)OC(=O)c2cccc(S(=O)(=O)N3CCCCCC3)c2)cc1 (configuration not stated), the activity change, negative = inhibition was inconclusive: -2.29%. With COc1cc(NC(=O)Cn2cnc3c(SC)nc(N)nc32)cc(OC)c1OC the Potency was inconclusive: 29.1 µM [falling, single point]. In the case of NNc1ccc(Cc2ccc(Cl)cc2Cl)nn1, the activity change, negative = inhibition is reported as inconclusive: 1.28%. For Cc1sc2ncnc(SCC(=O)NC(=O)NCc3ccco3)c2c1C, the activity change, negative = inhibition was inconclusive: 4.08%. With CC1CCC2=NN(C(=O)c3ccco3)C(O)(C(F)(F)F)C2C1 (configuration not stated) the activity change, negative = inhibition was “inactive”. For O=C(Nc1ccccc1C(=O)Nc1ccc2c(c1)OCO2)c1cccs1, the Potency was inconclusive: 13 µM [falling, partial curve]. With Cc1cc(C)n2nc(CC(=O)NC3CCCCCCC3)nc2n1 the activity change, negative = inhibition was inconclusive: -15.8%. For COc1cc(/C=N/NC(=S)NCCN2CCOCC2)ccc1O, the Potency was inconclusive: 32.6 µM [falling, partial curve, poor fit]. For CC1CC(C)(C)N2C(=O)C3(Nc4ccccc4S3)c3cccc1c32 (configuration not stated), the Potency was inconclusive: 20.6 µM [rising, partial curve, poor fit]. In the case of O=C(CNC(=O)c1ccc(F)cc1)N/N=C/c1cccnc1, the activity change, negative = inhibition is reported as “inactive”. With O=C(NCCCN1CCCC1=O)c1cc(=O)c2ccccc2o1 the Potency was inconclusive: 32.6 µM [falling, partial curve, poor fit]. In the case of CC(=O)/C(=N/Nc1cccc(Cl)c1)N1CCOCC1, the activity change, negative = inhibition is reported as inconclusive: 4.8%. With O=C(N/N=C/c1ccccn1)c1ccc(NC(=O)c2ccccc2Cl)cc1 the activity change, negative = inhibition was inconclusive: 8.43%. With CCc1nc2ccc(C(=O)Nc3cccc(C(C)=O)c3)cc2nc1CC the activity change, negative = inhibition was inconclusive: 23.6%. In the case of COc1ccc(-c2csc(NC(=O)CSc3ncn[nH]3)n2)cc1OC, the Potency is reported as inconclusive: 35.5 µM [falling, single point]. In the case of CCOC(=O)c1cn2nc(Oc3cccc(C(F)(F)F)c3)ccc2n1, the activity change, negative = inhibition is reported as inconclusive: -18.9%. With C=CCN(CC=C)C(=O)C(=O)c1cc(C)n(-c2ccc([N+](=O)[O-])cc2)c1C the activity change, negative = inhibition was “inactive”. For O=C(O)c1ccc(/C=N/NC(=O)c2ccc(Br)cc2)cc1, the activity change, negative = inhibition was inconclusive: -10.7%. In the case of CC(C)[C@H](NC(=O)c1ccccc1)C(=O)OCC(=O)/C=C1/N(C)c2ccccc2C1(C)C, the Potency is reported as inconclusive: 29.1 µM [falling, partial curve, poor fit]. For COc1ccc(C2OC(=O)CC2C(=O)NCc2ccc(F)cc2)cc1OC (configuration not stated), the Potency was inconclusive: 22.4 µM [falling, single point]. In the case of COc1ccccc1NC(=O)CSc1nnc(Cc2cccn2C)n1-c1ccc(F)cc1, the Potency is reported as inconclusive: 29.1 µM [falling, single point]. With Cc1ccc(C(=O)/C=C\C(=O)c2ccc(C)cc2)cc1 the activity change, negative = inhibition was inconclusive: -14.3%. In the case of CC(/C=N/N1CCN(c2ccccn2)CC1)=C\c1ccccc1, the Potency is reported as inconclusive: 8.2 µM [rising, partial curve, poor fit]. For COc1cccc(N2C(=O)[C@H]3C(C(=O)c4cnccn4)=NN[C@H]3C2=O)c1, the Potency was inconclusive: 1 µM [falling, full curve]. With COc1ccc(-c2cccc(-c3cc(=O)oc4cc(OC)c(OC)c(OC)c34)c2)cc1 the activity change, negative = inhibition was inconclusive: -0.39%. In the case of Cc1ccc(SCc2nc3ccccc3n2CC(=O)Nc2ccccc2)cc1, the activity change, negative = inhibition is reported as inconclusive: -19.8%. With Cc1cccc(C)c1OCC(=O)Nc1ccc(N2CCOCC2)cc1 the activity change, negative = inhibition was inconclusive: 21.2%. With COc1ccc(C2=Nn3c(nnc3-c3ccccc3F)SC2)cc1OCC1CC1 the Potency was inconclusive: 2.31 µM [falling, full curve]. For Cc1ccc(-c2nc3ncccc3o2)cc1NC(=O)c1cccnc1, the activity change, negative = inhibition was inconclusive: -9.13%. In the case of c1ccc2c(c1)oc1c(Nc3ccc4c(c3)OCO4)ncnc12, the activity change, negative = inhibition is reported as inconclusive: 6.36%. In the case of COc1ccc(C(=O)NNC(=O)c2ccccn2)cc1, the Potency is reported as inconclusive: 1.64 µM [rising, partial curve, poor fit]. In the case of CC1Cc2ccccc2N1C(=O)CSc1nnc(CNc2ccccc2)o1 (configuration not stated), the activity change, negative = inhibition is reported as “inactive”. For CCOc1ccccc1CNS(=O)(=O)c1ccc2c(c1)oc(=O)n2C, the activity change, negative = inhibition was “inactive”. For C/C(CC(=O)NC1CCCCC1)=N\NC(=O)c1ccccc1C, the Potency was inconclusive: 35.5 µM [falling, partial curve]. In the case of Cc1ccc(NC(=O)CSc2nc3n[nH]c(C)c3c(=N)n2-c2ccccc2C)cc1C, the activity change, negative = inhibition is reported as inconclusive: 2.16%. In the case of O=C(NCc1n[nH]c(=S)n1-c1ccc(Br)cc1)c1ccc(S(=O)(=O)N2CCOCC2)cc1, the Potency is reported as inconclusive: 2 µM [falling, full curve, poor fit]. With CC1CCN(CCCn2c(SCC(=O)Nc3ccccc3Cl)nc3ccccc3c2=O)CC1 the Potency was inconclusive: 10 µM [falling, partial curve, poor fit]. With CCS(=O)(=O)N1CCC(C(=O)NCCc2ccc(C)cc2)CC1 the activity change, negative = inhibition was inconclusive: 0.542%. For Cc1c(Cl)ccc2c1NC(=O)C21NC(CCC(N)=O)[C@H]2C(=O)N(c3ccc(Cl)cc3)C(=O)[C@H]21 (some centres not stated), the Potency was inconclusive: 25.1 µM [falling, single point]. For COc1ccc(N(C(=O)Cn2nnc(-c3ccc(Cl)cc3)n2)C(C(=O)NCC2CCCO2)c2ccncc2)cc1 (configuration not stated), the Potency was inconclusive: 7.94 µM [falling, partial curve]. For COc1ccccc1-c1nnc(-c2ccc(N3CCOCC3)cc2)o1, the Potency was inconclusive: 18.4 µM [falling, single point]. With COC(CN(C(=O)CCl)C(C(=O)NC1CCCCC1)c1ccccc1C)OC (configuration not stated) the Potency was inconclusive: 9.2 µM [falling, partial curve]. With COCCNC(=S)Nc1cc2oc3ccccc3c2cc1OC the activity change, negative = inhibition was “inactive”. For COc1cccc(NC(=O)CN(C)C(=O)CNC(=O)c2ccc3ccccc3c2)c1, the Potency was inconclusive: 13 µM [falling, single point]. With c1ccc(-c2ccccc2OCCCCN2CCCCC2)cc1 the activity change, negative = inhibition was inconclusive: -8.5%. With O=C(Nc1ccc2ncccc2c1)c1ccccc1Br the Potency was inconclusive: 15.8 µM [falling, partial curve]. For CCC(=O)Nc1ccc(Cl)c(NC(=O)c2cccnc2)c1, the activity change, negative = inhibition was inconclusive: -2.27%. In the case of COc1cc(/C=C/C(=O)c2ccc(F)cc2)cc(OC)c1OC, the activity change, negative = inhibition is reported as inconclusive: 11.7%. For COc1cccc(C(=O)NCCSCc2c(F)cccc2Cl)c1, the Potency was inconclusive: 17.8 µM [falling, single point]. For CCOc1ccc(S(=O)(=O)N(CC(=O)O)c2ccc(C)cc2)cc1, the activity change, negative = inhibition was inconclusive: -3.74%. For COc1cc(-c2nnn(CC(=O)NC3CCS(=O)(=O)C3)n2)ccc1OCc1ccccc1 (configuration not stated), the activity change, negative = inhibition was inconclusive: -4.28%. With O=C1NN=C(c2ccc(Cl)cc2)CC1c1cccc(Cl)c1 (configuration not stated) the Potency was inconclusive: 23.1 µM [rising, single point]. In the case of Brc1ccc(OCCCOc2cccc3cccnc23)cc1, the activity change, negative = inhibition is reported as inconclusive: -1.89%. With O=C(COC(=O)c1ncc(Cl)c(Cl)c1Cl)Nc1ccccc1OC(F)F the activity change, negative = inhibition was inconclusive: -0.596%. In the case of O=C(/C=C/c1ccc(Cl)cc1Cl)N1CCN(c2ccc([N+](=O)[O-])c(N3CCOCC3)c2)CC1, the activity change, negative = inhibition is reported as “inactive”. For O=C(NCCc1ccccc1F)N[C@@H](Cc1ccccc1)C(=O)O, the activity change, negative = inhibition was inconclusive: -0.875%. With COc1cccc(/C=N/Nc2cc(-n3nc(C)cc3-c3ccccc3)ncn2)c1O the activity change, negative = inhibition was “inactive”. For Cc1nn(-c2ccccc2)c(N2CCCC2)c1/C=N/NC(=O)c1cc(-c2cccs2)nc2ccccc12, the activity change, negative = inhibition was “inactive”. With CN(C)CCn1c2c(c(SCC(=O)Nc3ccc4c(c3)OCCO4)nc1=O)CCC2 the Potency was inconclusive: 3.66 µM [falling, full curve]. With O=C(/C=C/c1ccccc1)OCCCCN=C1NS(=O)(=O)c2ccccc21 the activity change, negative = inhibition was “inactive”. With CCc1ccc2oc(-c3cc(N)cc(C)c3O)nc2c1 the activity change, negative = inhibition was inconclusive: -19.1%. In the case of CCN(CC)c1ccc(/C=N/n2c(C)cc(C)cc2=O)cc1, the activity change, negative = inhibition is reported as inconclusive: -0.379%.

— PubChem BioAssay AID493014 (National Center for Advancing Translational Sciences (NCATS), 2011)
Potency means the concentration at half of the fitted maximal effect.
